The target in the assay is T1, OX40-Fc (R&D) (human) (UniProt P43489).
T1 sequence: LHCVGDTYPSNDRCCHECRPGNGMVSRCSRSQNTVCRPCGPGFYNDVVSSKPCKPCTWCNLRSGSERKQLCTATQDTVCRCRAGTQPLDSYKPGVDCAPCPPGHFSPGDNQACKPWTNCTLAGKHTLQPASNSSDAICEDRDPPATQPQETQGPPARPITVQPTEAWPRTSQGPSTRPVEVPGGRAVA
Kind of assay: ELISA on coated OX40-Fc. A general note: ELISA stands for enzyme-linked immunosorbent assay.

These are yes or no findings as the source states them, for the method shown. Some binding calls cover weakened binding; strength is not graded here. Tags and fused reporters may be left off the sequences shown.

B1: Anti-OX40 #1-IgG (antibody, V domains shown)
VH: QVQLQESGPGLVKPSQTLSLTCAVYGGSFSSGYWNWIRKHPGKGLEYIGYISYNGITYHNPSLKSRITINRDTSKNQYSLQLNSVTPEDTAVYYCARYKYDYDGGHAMDYWGQGTLVTVSS
VL: DIQMTQSPSSLSASVGDRVTITCRASQDISNYLNWYQQKPGKAPKLLIYYTSKLHSGVPSRFSGSGSGTDYTLTISSLQPEDFATYYCQQGSALPWTFGQGTKVEIK
In the case of B1, the binding result is listed as “binds”.

Values taken from patent US20190330374A1.
